The target in the assay is T1, self-assembling peptide nanofibers (peptide sequence AcN-…-CNH2).
T1 sequence (peptide, N-terminal acetyl and C-terminal amide, printed as AcN-...-CNH2): RARADADARARADADA
Briefly: 100 ng protein embedded in NFs, incubated in PBS 3 h at 37 C, Bradford assay of the supernatant.

These are yes or no findings as the source states them, for the method shown. A result given as binding can be weak or reduced; the word gives no strength.

Turning to bFGF (R&D Systems) (ligand), the binding result is recorded as “binds”.
Next, angiopoietin-1 (R&D Systems) (ligand): “binds”.

The record behind these values is patent US20060148703A1.
